# Source: the supplement of paper PMC7666118
# The other results are listed elsewhere or left out.
# Molecular target: T1, STX2 (UniProt P32856)
# T1 sequence (whole entry): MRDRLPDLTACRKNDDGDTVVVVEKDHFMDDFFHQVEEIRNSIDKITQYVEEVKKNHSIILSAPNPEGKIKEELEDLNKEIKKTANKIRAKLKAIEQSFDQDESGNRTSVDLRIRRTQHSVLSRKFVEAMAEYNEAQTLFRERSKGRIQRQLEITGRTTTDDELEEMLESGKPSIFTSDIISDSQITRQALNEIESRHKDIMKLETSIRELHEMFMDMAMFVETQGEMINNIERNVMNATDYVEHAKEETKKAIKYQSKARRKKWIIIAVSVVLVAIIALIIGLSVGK
# Assay: dose-dependent thermal stabilisation call (2D-TPP, DLPTP, 10% FDR) (binary (1 = stabilised)); higher = stabilised by the compound
# Settings: system: HL-60 intact cells; concentration range 0.04-10 µM
# Method: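 2D thermal proteome profiling in intact HL-60 cells treated with BRD-3811 (0, 0.04, 0.29, 2, 10 uM) for 90 min at 37 C, then heated 3 min at one of 12 temperatures (42-63.9 C). Soluble protein was quantified by TMT10 MS. The value is the DLPTP call of the paper: dose-dependent thermal stabilisation over all temperatures at 10% FDR (F-test of a dose-response against a flat model); one experiment, one call per tested protein.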
row,Structure (SMILES),dose-dependent thermal stabilisation call
1,COc1ccc(Cn2ccc3cc(C)c(C(=O)NO)cc32)cc1,inactive: 0
